Reference: publication PMC3323580
Results are given in words; binding and its absence hold for the method and conditions named.

The chains behind the UniProt entries cited, without tags or fusion partners. Where a name states a change or a piece, a line headed by the entry shows the natural chain unless it says otherwise. A line that says so, or that is headed by a name, gives the form on record, which may keep a tag or linker.
CR1 20–23, complement receptor-type 1 CCPs 20–23 (P17927, form named): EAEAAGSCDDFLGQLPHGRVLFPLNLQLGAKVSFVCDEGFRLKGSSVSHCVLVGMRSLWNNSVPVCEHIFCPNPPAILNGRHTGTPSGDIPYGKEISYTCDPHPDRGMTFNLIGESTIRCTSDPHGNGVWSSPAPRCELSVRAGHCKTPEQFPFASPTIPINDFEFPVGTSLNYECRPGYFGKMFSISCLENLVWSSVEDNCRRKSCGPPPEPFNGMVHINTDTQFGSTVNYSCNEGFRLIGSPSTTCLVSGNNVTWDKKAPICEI

Biological target: CR1 20–23, complement receptor-type 1 CCPs 20–23 (human) (UniProt P17927)
Assay: SAXS; CR1 20–23 at 1.9 and 3.3 mg/ml, 10°C, 50 mM potassium phosphate pH 7.4; excluded volume from the DAMMIF ab initio model; both purified

CR1 20–23, complement receptor-type 1 CCPs 20–23 (from UniProt P17927 1257-1516) (domain or fragment)
binding: no binding (tested: 1.9 and 3.3 mg.ml^−1)
